Test results as given in the supplement of paper PMC10849652.
The list shows a part of the results.

Sequences of proteins named here, by UniProt entry; tags and fusion partners are left off. A change or cut given only in a name is not applied to a line headed by its entry.
UniProt Q96GS6: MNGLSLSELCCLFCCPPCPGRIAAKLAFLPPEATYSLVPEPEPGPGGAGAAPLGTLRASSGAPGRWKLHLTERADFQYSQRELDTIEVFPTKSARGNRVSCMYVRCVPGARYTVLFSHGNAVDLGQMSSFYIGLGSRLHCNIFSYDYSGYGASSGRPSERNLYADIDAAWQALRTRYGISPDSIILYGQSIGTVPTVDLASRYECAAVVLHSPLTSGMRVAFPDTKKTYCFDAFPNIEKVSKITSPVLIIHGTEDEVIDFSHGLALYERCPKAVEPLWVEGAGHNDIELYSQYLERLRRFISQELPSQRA
UniProt Q53FZ2: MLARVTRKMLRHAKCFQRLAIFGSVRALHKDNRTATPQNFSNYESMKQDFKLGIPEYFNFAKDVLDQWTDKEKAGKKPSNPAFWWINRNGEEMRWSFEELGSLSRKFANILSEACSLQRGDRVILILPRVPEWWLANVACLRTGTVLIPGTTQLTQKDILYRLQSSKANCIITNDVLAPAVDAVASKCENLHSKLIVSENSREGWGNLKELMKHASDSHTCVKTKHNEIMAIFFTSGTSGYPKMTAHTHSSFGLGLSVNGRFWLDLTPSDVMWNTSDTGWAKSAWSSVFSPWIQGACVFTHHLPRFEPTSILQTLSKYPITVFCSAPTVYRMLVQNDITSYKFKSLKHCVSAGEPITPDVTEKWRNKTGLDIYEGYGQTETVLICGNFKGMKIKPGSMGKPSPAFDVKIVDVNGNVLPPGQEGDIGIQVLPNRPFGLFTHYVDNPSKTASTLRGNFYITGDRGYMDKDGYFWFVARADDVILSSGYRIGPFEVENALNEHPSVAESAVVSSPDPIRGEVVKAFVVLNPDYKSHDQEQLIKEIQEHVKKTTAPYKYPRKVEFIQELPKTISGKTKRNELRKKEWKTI
UniProt P28288: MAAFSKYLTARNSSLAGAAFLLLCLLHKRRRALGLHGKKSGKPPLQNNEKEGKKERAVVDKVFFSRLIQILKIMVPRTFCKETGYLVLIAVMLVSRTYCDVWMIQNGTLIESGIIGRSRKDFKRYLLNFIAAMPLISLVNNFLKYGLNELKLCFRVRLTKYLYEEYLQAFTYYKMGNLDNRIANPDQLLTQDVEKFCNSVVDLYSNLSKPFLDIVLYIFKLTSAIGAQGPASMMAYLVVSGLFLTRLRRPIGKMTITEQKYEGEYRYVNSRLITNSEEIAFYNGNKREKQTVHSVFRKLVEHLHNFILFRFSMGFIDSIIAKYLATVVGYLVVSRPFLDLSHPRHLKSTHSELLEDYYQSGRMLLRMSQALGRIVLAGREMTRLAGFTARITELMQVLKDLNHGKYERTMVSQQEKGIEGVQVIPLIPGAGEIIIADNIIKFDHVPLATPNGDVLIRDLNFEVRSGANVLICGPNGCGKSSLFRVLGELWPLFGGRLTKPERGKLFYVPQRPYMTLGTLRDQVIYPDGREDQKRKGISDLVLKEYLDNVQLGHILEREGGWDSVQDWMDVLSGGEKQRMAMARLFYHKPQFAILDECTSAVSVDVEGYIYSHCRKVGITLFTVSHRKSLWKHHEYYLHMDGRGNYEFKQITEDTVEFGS
UniProt Q5VST6: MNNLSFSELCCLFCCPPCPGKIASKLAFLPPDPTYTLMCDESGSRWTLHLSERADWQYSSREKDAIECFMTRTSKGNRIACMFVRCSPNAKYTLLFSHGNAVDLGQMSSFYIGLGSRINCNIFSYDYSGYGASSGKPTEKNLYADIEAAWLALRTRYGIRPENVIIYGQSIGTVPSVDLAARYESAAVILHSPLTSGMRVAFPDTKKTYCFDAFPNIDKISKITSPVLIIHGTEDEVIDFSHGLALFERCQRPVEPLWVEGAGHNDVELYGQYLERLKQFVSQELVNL
UniProt Q9NZ32, whole entry, looked up: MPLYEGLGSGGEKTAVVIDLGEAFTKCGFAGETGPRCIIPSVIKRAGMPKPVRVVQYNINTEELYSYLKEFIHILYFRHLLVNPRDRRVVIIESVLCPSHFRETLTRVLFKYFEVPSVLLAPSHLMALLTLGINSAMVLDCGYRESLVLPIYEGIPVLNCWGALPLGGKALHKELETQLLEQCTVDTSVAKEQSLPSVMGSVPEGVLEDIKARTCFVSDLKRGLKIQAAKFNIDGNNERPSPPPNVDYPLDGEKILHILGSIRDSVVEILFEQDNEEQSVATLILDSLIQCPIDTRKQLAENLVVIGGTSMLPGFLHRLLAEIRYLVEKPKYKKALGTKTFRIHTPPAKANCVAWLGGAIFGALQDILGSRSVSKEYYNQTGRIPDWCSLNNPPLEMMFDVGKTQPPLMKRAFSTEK
UniProt Q9NP58: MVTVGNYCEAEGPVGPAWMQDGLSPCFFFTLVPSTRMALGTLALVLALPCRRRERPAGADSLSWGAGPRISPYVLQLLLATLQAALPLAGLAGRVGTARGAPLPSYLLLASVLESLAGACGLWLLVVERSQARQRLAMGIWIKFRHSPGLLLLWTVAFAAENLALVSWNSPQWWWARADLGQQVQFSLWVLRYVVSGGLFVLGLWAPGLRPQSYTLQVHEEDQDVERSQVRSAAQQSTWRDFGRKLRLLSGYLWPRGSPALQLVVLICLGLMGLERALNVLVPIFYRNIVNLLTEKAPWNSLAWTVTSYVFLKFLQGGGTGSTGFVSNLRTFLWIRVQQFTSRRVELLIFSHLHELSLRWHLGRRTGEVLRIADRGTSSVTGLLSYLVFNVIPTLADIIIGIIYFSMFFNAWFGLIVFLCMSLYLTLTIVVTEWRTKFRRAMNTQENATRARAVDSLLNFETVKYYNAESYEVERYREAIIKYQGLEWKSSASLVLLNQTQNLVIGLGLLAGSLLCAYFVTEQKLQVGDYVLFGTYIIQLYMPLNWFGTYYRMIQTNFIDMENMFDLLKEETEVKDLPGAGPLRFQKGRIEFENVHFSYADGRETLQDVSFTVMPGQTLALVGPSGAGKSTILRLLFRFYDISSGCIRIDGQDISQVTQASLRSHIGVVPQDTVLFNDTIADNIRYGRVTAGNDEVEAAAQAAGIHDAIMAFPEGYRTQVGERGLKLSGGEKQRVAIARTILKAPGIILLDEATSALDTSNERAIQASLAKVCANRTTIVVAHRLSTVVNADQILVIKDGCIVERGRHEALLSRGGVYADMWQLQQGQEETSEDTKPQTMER
UniProt P61163, whole entry, looked up: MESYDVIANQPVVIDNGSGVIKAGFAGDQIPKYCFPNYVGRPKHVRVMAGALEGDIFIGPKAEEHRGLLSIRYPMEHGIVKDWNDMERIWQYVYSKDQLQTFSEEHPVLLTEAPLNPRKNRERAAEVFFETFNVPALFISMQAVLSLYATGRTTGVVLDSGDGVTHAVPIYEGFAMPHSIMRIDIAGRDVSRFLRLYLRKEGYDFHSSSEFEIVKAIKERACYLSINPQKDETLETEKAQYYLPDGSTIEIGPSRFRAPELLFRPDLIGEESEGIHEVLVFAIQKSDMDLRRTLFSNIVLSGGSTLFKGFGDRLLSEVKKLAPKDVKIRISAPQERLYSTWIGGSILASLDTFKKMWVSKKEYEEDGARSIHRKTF
UniProt Q9H845: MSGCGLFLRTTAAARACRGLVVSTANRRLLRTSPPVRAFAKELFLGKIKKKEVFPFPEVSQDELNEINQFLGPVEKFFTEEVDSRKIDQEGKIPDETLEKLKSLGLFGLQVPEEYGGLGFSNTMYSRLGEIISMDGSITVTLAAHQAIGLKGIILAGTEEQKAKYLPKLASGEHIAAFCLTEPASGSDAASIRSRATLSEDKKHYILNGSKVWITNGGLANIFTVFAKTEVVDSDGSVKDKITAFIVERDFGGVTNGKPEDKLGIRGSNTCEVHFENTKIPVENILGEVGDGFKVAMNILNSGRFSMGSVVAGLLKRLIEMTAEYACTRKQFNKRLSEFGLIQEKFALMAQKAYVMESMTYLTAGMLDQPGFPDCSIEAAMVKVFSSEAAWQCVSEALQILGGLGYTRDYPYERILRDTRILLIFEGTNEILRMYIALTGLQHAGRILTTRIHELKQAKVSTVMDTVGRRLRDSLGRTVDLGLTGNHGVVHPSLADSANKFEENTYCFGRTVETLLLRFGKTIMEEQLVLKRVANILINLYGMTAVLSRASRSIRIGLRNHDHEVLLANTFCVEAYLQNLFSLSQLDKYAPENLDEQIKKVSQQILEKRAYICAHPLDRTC
UniProt P33527: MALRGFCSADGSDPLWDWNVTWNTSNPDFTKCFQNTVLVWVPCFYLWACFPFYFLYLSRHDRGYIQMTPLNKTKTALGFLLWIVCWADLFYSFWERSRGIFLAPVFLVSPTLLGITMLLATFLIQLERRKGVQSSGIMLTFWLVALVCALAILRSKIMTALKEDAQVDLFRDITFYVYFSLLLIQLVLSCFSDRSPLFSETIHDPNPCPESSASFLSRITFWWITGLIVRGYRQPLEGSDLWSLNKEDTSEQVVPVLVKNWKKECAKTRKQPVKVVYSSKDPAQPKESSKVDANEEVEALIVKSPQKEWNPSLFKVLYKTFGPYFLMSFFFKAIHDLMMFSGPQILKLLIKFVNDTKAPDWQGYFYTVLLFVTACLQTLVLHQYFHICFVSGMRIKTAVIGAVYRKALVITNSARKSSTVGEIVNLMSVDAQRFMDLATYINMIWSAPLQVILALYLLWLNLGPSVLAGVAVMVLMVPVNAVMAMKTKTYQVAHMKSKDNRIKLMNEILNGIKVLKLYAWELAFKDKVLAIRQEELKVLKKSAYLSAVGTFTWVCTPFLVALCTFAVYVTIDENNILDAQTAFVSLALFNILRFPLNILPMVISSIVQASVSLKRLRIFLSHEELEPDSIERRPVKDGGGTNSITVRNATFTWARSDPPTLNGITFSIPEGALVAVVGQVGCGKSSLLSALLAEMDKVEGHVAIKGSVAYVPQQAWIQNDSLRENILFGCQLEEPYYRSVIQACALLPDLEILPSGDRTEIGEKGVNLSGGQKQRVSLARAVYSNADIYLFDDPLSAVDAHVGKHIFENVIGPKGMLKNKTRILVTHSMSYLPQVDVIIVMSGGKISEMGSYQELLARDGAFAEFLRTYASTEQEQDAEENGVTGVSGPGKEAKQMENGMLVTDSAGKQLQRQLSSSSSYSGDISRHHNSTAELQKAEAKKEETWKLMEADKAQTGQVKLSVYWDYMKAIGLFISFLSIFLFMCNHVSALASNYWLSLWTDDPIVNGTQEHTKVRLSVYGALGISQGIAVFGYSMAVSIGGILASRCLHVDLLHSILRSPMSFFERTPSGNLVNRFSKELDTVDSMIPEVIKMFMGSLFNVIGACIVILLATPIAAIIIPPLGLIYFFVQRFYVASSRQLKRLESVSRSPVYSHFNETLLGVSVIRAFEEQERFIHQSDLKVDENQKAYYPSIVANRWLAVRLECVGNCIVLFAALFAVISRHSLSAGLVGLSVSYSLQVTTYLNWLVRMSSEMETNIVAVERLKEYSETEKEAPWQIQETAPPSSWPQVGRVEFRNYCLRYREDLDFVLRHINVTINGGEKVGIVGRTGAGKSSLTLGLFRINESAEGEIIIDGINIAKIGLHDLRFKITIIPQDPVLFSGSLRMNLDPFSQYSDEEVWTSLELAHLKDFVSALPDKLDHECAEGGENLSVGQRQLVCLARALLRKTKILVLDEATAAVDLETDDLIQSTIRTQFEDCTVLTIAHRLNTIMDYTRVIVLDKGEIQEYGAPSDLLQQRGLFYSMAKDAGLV
UniProt Q9Y305: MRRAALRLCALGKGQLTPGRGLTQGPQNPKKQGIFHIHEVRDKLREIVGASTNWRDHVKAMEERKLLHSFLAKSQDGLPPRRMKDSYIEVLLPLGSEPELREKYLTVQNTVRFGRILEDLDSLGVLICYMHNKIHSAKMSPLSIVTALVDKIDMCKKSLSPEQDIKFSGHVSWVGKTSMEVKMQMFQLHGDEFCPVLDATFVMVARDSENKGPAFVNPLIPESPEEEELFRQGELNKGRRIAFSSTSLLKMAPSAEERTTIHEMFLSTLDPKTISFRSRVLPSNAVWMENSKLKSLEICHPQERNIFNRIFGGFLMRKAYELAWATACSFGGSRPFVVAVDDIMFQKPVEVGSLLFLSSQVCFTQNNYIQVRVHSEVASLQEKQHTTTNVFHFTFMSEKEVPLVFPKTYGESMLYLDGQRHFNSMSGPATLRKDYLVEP
UniProt Q9H568: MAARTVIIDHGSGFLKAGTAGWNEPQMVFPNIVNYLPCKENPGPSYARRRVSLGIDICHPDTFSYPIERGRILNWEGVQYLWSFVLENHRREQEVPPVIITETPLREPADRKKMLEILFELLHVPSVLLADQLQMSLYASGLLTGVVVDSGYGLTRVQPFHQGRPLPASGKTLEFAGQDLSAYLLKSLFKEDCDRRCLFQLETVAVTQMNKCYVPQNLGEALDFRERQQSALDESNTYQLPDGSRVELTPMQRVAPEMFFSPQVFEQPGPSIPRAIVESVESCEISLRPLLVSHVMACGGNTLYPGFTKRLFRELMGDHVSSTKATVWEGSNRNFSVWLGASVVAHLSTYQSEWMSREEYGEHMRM

Experiments:
Test in all cases: log2 fold change, soluble protein after heating vs DMSO (PISA); higher = thermal stabilisation; K562 cells, 10 uM, 30 min; active = over 0.2 and 3.5 SD of the protein, either way, in both replicates (recomputed)
[1] = compound: CC[C@@H]1C(=O)N(C)c2cnc(Nc3ccc(C(=O)NC4CCN(C)CC4)cc3OC)nc2N1C1CCCC1
In short: (§1)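 For each measurement, 10 μM compound was applied for 30 min to K562 cells at 2×10^6 cells/mL. Aliquots were heated for 3 min across 48°C-58°C, pooled, and extracted in PBS with 0.5% NP-40 at 4°C; the supernatant after 21,000xg for 90 min was soluble protein. This was quantified by TMTpro 16plex LC-MS/MS with channel sums equalised, and thermal stability was reported relative to control samples from duplicates, on a log2 fold-change scale.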

volasertib = compound: CC[C@@H]1C(=O)N(C)c2cnc(Nc3ccc(C(=O)N[C@H]4CC[C@H](N5CCN(CC6CC6)CC5)CC4)cc3OC)nc2N1C(C)C [volasertib]
In short: as §1

[2] = compound: CC[C@H](C)N1C=C(C2=C(C=C(C=C21)C3=CN=C(C=C3)N4CCNCC4)C(=O)NCC5=C(C=C(NC5=O)C)C)C
In short: as §1

epoxomicin = compound: CC[C@H](C)[C@@H](C(=O)N[C@@H]([C@@H](C)O)C(=O)N[C@@H](CC(C)C)C(=O)[C@]1(CO1)C)NC(=O)[C@H]([C@@H](C)CC)N(C)C(=O)C [epoxomicin]
In short: as §1

[3] = compound: CCn1cc(-c2ccnc3[nH]c(-c4cccc(CN(C)C)c4)cc23)c(-c2ccc(NC(=O)N(C)C)cc2)n1
In short: as §1

[4] = compound: CN(C)CC(=O)Nc1ccc2[nH]c(=O)c3ccccc3c2c1
In short: as §1

[5] = compound: CN1C2=C(C3=C1C(=O)N(N=C3)CC4=CC(=CC=C4)N)SC(=C2)S(=O)C
In short: as §1

[6] = compound: CN1CCC(CNc2ccc3ncc(-c4cccc(OC(F)(F)F)c4)n3n2)CC1
In short: as §1

saracatinib = compound: CN1CCN(CCOc2cc(OC3CCOCC3)c3c(Nc4c(Cl)ccc5c4OCO5)ncnc3c2)CC1 [saracatinib]
In short: as §1

sotrastaurin = compound: CN1CCN(c2nc(C3=C(c4c[nH]c5ccccc45)C(=O)NC3=O)c3ccccc3n2)CC1 [sotrastaurin]
In short: as §1

Tubastatin A = compound: CN1CCc2c(c3ccccc3n2Cc2ccc(C(=O)NO)cc2)C1 [Tubastatin A]
In short: as §1

[7] = compound: CNC(=O)C1=CC=CC=C1NC2=NC(=NC=C2Cl)NC3=C(C=C(C=C3)N4CCOCC4)OC
In short: as §1

defactinib = compound: CNC(=O)c1ccc(Nc2ncc(C(F)(F)F)c(NCc3nccnc3N(C)S(C)(=O)=O)n2)cc1 [defactinib]
In short: as §1

rucaparib = compound: CNCc1ccc(-c2[nH]c3cc(F)cc4c3c2CCNC4=O)cc1 [rucaparib]
In short: as §1

[8] = compound: CNc1nc(-c2ccc3c(N)n[nH]c3c2)cc(N2C[C@@H](C(=O)NC3CCCCC3)CC[C@H]2C)n1
In short: as §1

encorafenib = compound: COC(=O)N[C@@H](C)CNc1nccc(-c2cn(C(C)C)nc2-c2cc(Cl)cc(NS(C)(=O)=O)c2F)n1 [encorafenib]
In short: as §1

[9] = compound: COC(=O)[C@H](CCSC)NC(=O)C1=C(C=C(C=C1)NC[C@H](CS)N)C2=CC=CC=C2
In short: as §1

[10] = compound: CCn1c(C(=O)N(C2CC2)C2CC2)cc2c3c(ncn3C)c(Nc3cc(C)n(C)n3)nc21
In short: as §1

rosiglitazone = compound: CN(CCOC1=CC=C(C=C1)C[C@H]2C(=O)NC(=O)S2)C3=CC=CC=N3 (racemic) [rosiglitazone]
In short: as §1

alvocidib = compound: CN1CC[C@H](c2c(O)cc(O)c3c(=O)cc(-c4ccccc4Cl)oc23)[C@H](O)C1 [alvocidib]
In short: as §1

Target | log2 fold change [1] | log2 fold change (volasertib) | log2 fold change [2] | log2 fold change (epoxomicin) | log2 fold change [3] | log2 fold change [4] | log2 fold change [5] | log2 fold change [6] | log2 fold change (saracatinib) | log2 fold change (sotrastaurin) | log2 fold change (Tubastatin A) | log2 fold change [7] | log2 fold change (defactinib) | log2 fold change (rucaparib) | log2 fold change [8] | log2 fold change (encorafenib) | log2 fold change [9] | log2 fold change [10] | log2 fold change (rosiglitazone) | log2 fold change (alvocidib)
ABHD17A isoform 2 (UniProt Q96GS6) | inactive: -0.072 | inactive: -0.172 | inactive: -0.084 | inactive: -0.057 | inactive: -0.17 | inactive: -0.067 | inactive: -0.015 | active: -0.377 | inactive: 0.002 | inactive: 0.01 | inactive: 0.065 | active: -0.595 | inactive: -0.008 | inactive: 0.017 | inactive: -0.052 | inactive: 0.104 | inactive: 0.059 | – | – | –
ACTR2 (UniProt P61160) | inactive: -0.02 | inactive: -0.026 | inactive: -0.011 | inactive: 0.017 | inactive: 0.019 | inactive: -0.037 | inactive: 0.018 | inactive: -0.028 | inactive: -0.018 | inactive: 0.002 | inactive: -0.017 | inactive: 0.037 | inactive: -0.025 | inactive: -0.012 | inactive: -0.061 | inactive: -0.008 | inactive: -0.007 | inactive: -0.008 | inactive: 0.009 | inactive: -0.017
ACSM3 (UniProt Q53FZ2) | inactive: 0.021 | inactive: -0.092 | inactive: 0.062 | inactive: 0.146 | inactive: -0.02 | inactive: 0.154 | inactive: -0.099 | inactive: -0.145 | inactive: 0.031 | inactive: 0.018 | inactive: 0.009 | inactive: 0.053 | inactive: -0.148 | inactive: 0.142 | inactive: -0.09 | inactive: 0.021 | inactive: -0.064 | – | – | –
ACBD3 (UniProt Q9H3P7) | inactive: 0.003 | inactive: -0.057 | inactive: 0.061 | inactive: 0.032 | inactive: -0.041 | inactive: 0.034 | inactive: -0.025 | inactive: -0.03 | inactive: 0.006 | inactive: 0.022 | inactive: -0.001 | inactive: -0.015 | inactive: -0.064 | inactive: 0.057 | inactive: 0.068 | inactive: -0.021 | inactive: -0.098 | inactive: 0.014 | inactive: 0.029 | inactive: -0.098
ABCD3 (UniProt P28288) | inactive: 0.049 | inactive: 0.092 | inactive: 0.008 | inactive: -0.033 | inactive: -0.02 | inactive: 0.073 | inactive: -0.03 | inactive: 0.094 | inactive: 0.006 | inactive: 0.006 | inactive: -0.006 | inactive: -0.007 | inactive: -0.009 | inactive: 0.002 | inactive: 0.034 | inactive: 0.037 | inactive: -0.036 | inactive: -0.026 | inactive: 0.035 | inactive: 0.003
ABHD17B (UniProt Q5VST6) | inactive: -0.021 | inactive: -0.136 | inactive: -0.02 | inactive: -0.047 | inactive: -0.034 | inactive: 0.01 | inactive: -0.003 | inactive: -0.102 | inactive: -0.052 | – | inactive: -0.004 | inactive: 0.13 | inactive: -0.09 | inactive: -0.133 | inactive: 0.075 | inactive: -0.058 | inactive: 0.009 | inactive: -0.065 | inactive: -0.013 | inactive: -0.067
ACTR10 (UniProt Q9NZ32) | inactive: 0.008 | inactive: -0.004 | inactive: -0.009 | inactive: 0.036 | inactive: -0.005 | inactive: -0.055 | inactive: -0.052 | inactive: 0.101 | inactive: -0.001 | inactive: -0.012 | inactive: -0.002 | inactive: 0.001 | inactive: -0.029 | inactive: -0.034 | inactive: -0.007 | inactive: 0.017 | inactive: 0.038 | inactive: 0.008 | inactive: -0.034 | inactive: 0.059
ACLY isoform 2 (UniProt P53396) | inactive: 0.018 | inactive: -0.128 | inactive: -0.018 | inactive: -0.076 | – | inactive: -0.019 | – | – | – | inactive: 0.031 | inactive: 0.018 | inactive: -0.025 | inactive: -0.041 | inactive: -0.004 | – | inactive: 0.022 | inactive: -0.019 | inactive: -0.017 | inactive: 0.059 | –
ACSL4 (UniProt O60488) | inactive: -0.15 | inactive: -0.276 | inactive: -0.051 | inactive: 0.024 | inactive: -0.029 | inactive: 0.092 | inactive: 0.051 | inactive: -0.229 | inactive: -0.128 | inactive: -0.086 | inactive: 0.071 | inactive: 0.05 | inactive: -0.041 | inactive: 0.069 | inactive: 0.043 | inactive: 0.094 | inactive: -0.024 | – | active: 1.17 | –
AARS (UniProt P49588) | inactive: -0.023 | inactive: 0.021 | inactive: 0.003 | inactive: 0.057 | inactive: -0.04 | inactive: -0.007 | inactive: -0.047 | inactive: 0.006 | inactive: 0.024 | inactive: -0.003 | inactive: -0.013 | inactive: -0.005 | inactive: 0 | inactive: -0.084 | inactive: -0.006 | inactive: 0.013 | inactive: 0 | inactive: 0.021 | inactive: 0.028 | inactive: -0.022
ABCB6 (UniProt Q9NP58) | inactive: -0.131 | inactive: -0.051 | inactive: 0.001 | inactive: -0.009 | inactive: -0.019 | inactive: 0.061 | inactive: -0.053 | inactive: -0.123 | inactive: 0.073 | inactive: 0.01 | inactive: -0.017 | inactive: -0.013 | inactive: -0.031 | inactive: -0.034 | inactive: 0.003 | inactive: 0.055 | inactive: -0.017 | – | – | –
ACTR1A (UniProt P61163) | inactive: 0 | inactive: -0.05 | inactive: -0.003 | inactive: 0.029 | inactive: 0.015 | inactive: -0.023 | inactive: -0.047 | inactive: -0.005 | inactive: 0.004 | inactive: -0.009 | inactive: -0.006 | inactive: 0.03 | inactive: -0.015 | inactive: 0.051 | inactive: 0.02 | inactive: -0.012 | inactive: 0 | inactive: 0.013 | inactive: -0.017 | inactive: -0.025
ACAD9 (UniProt Q9H845) | inactive: 0.03 | inactive: 0.024 | inactive: -0.039 | inactive: 0.015 | inactive: 0.014 | inactive: 0.022 | inactive: -0.032 | inactive: -0.002 | inactive: 0.008 | inactive: 0.004 | inactive: -0.041 | inactive: -0.001 | inactive: -0.026 | inactive: -0.038 | inactive: -0.025 | inactive: -0.004 | inactive: -0.015 | – | – | –
ABCC4 (UniProt O15439) | inactive: 0.133 | inactive: 0.014 | inactive: -0.024 | inactive: 0.013 | inactive: -0.016 | inactive: -0.01 | inactive: -0.074 | inactive: 0.163 | inactive: 0.034 | inactive: 0.028 | inactive: 0.001 | inactive: -0.041 | inactive: -0.021 | inactive: -0.023 | inactive: -0.01 | inactive: -0.004 | inactive: -0.029 | inactive: 0.002 | inactive: -0.007 | inactive: 0.028
ABCC1 (UniProt P33527) | inactive: 0.091 | inactive: 0.01 | inactive: -0.032 | inactive: -0.021 | inactive: -0.049 | inactive: -0.025 | inactive: -0.038 | inactive: 0.11 | inactive: 0.074 | inactive: 0.012 | inactive: 0.006 | inactive: -0.031 | inactive: -0.036 | inactive: -0.013 | inactive: 0.061 | inactive: -0.009 | inactive: 0.027 | inactive: 0.011 | inactive: 0.022 | inactive: -0.038
ACOT9 isoform 4 (UniProt Q9Y305) | inactive: 0.137 | inactive: 0.12 | inactive: 0.03 | inactive: -0.003 | inactive: -0.021 | inactive: -0.042 | inactive: 0.029 | inactive: 0.142 | inactive: -0.102 | inactive: 0.054 | inactive: 0 | inactive: -0.073 | inactive: 0.057 | inactive: 0.216 | inactive: 0.127 | inactive: 0.041 | inactive: -0.032 | inactive: -0.042 | inactive: -0.006 | inactive: 0.031
ACTL8 (UniProt Q9H568) | inactive: 0.159 | inactive: 0.059 | inactive: -0.016 | inactive: 0.037 | inactive: 0.113 | inactive: 0.05 | inactive: -0.013 | inactive: 0.023 | inactive: 0.084 | inactive: 0.119 | inactive: -0.006 | inactive: -0.011 | inactive: -0.01 | inactive: -0.05 | inactive: 0.004 | inactive: -0.022 | inactive: 0.03 | inactive: 0.019 | inactive: 0.117 | inactive: -0.037

3 neighbouring entries from above, quoted:
Target | log2 fold change [1] | log2 fold change (volasertib) | log2 fold change [2] | log2 fold change (epoxomicin) | log2 fold change [3] | log2 fold change [4] | log2 fold change [5] | log2 fold change [6] | log2 fold change (saracatinib) | log2 fold change (sotrastaurin) | log2 fold change (Tubastatin A) | log2 fold change [7] | log2 fold change (defactinib) | log2 fold change (rucaparib) | log2 fold change [8] | log2 fold change (encorafenib) | log2 fold change [9] | log2 fold change [10] | log2 fold change (rosiglitazone) | log2 fold change (alvocidib)
ACLY isoform 2 (UniProt P53396) | inactive: 0.018 | inactive: -0.128 | inactive: -0.018 | inactive: -0.076 | – | inactive: -0.019 | – | – | – | inactive: 0.031 | inactive: 0.018 | inactive: -0.025 | inactive: -0.041 | inactive: -0.004 | – | inactive: 0.022 | inactive: -0.019 | inactive: -0.017 | inactive: 0.059 | –
ACSL4 (UniProt O60488) | inactive: -0.15 | inactive: -0.276 | inactive: -0.051 | inactive: 0.024 | inactive: -0.029 | inactive: 0.092 | inactive: 0.051 | inactive: -0.229 | inactive: -0.128 | inactive: -0.086 | inactive: 0.071 | inactive: 0.05 | inactive: -0.041 | inactive: 0.069 | inactive: 0.043 | inactive: 0.094 | inactive: -0.024 | – | active: 1.17 | –
AARS (UniProt P49588) | inactive: -0.023 | inactive: 0.021 | inactive: 0.003 | inactive: 0.057 | inactive: -0.04 | inactive: -0.007 | inactive: -0.047 | inactive: 0.006 | inactive: 0.024 | inactive: -0.003 | inactive: -0.013 | inactive: -0.005 | inactive: 0 | inactive: -0.084 | inactive: -0.006 | inactive: 0.013 | inactive: 0 | inactive: 0.021 | inactive: 0.028 | inactive: -0.022
